Source: the supplement of paper PMC3334620
In all, about 33,000 sequences were measured (“E-score (-0.5 to 0.5)”: median about -8e-05, highest 2% from about 0.23 on). This is one part of the list.

The sequences below were run against T1, Nrg2 (UniProt P38082) (assay: PBM E-score (8-mer binding enrichment) (E-score (-0.5 to 0.5)); higher = stronger / more preferred TF binding). Conditions: protein concentration: 100 nM; construct: GST-full length.
T1 sequence: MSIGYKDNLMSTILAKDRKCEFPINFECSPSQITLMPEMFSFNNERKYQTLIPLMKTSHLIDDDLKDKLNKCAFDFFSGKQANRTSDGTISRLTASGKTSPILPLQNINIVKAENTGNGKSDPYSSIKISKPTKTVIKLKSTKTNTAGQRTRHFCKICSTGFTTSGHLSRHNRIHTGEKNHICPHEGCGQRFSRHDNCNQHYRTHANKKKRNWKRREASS
Description: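 Universal 'all 10-mer' protein binding microarrays (Agilent AMADID 015681) probed with GST-tagged S. cerevisiae TFs (full-length or DBD) made by in vitro transcription/translation (PURExpress), about 100-200 nM. Bound TF was detected with fluorescent anti-GST. Each ungapped 8-mer (which stands for itself and its reverse complement) is scored by the PBM enrichment score (E-score), a modified Wilcoxon-Mann-Whitney statistic from -0.5 to +0.5, computed with the Universal PBM Analysis Suite. Scale: above 0.35 generally sequence-specific binding.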

Row | Sequence | PBM E-score
1 | ACTTGACT | 0.0321
2 | ATCGCGTC | 0.133
3 | AGGTTTTA | -0.156
4 | CAATATGC | 0.0165
5 | CCTAGAAA | -0.0341
6 | AGCAAAAG | -0.0507
7 | AAGTGTAT | -0.0378
8 | CTCGATAC | 0.245
9 | CAGCGGCG | -0.00439
10 | CCTATCAA | 0.071
11 | CGCAGGAA | -0.049
12 | TACTTAAA | -0.105
13 | TGTAAAAA | -0.0125
14 | AACGCTGA | -0.116
15 | CAGGATGA | -0.0359
16 | ATGCGTTC | 0.208
17 | AACTAGCT | 0.0365
18 | GAACGGCC | -0.0287
19 | ATCGGAGA | -0.1
20 | AGTGCTAG | -0.0309
21 | AAAGACGC | -0.084
22 | ACGCTTGC | -0.0292
23 | ACCCCGAA | 0.221
24 | AAGTCCTA | -0.264
25 | AAACAGGG | 0.207

Row | Sequence | PBM E-score
26 | ACTACCCC | -0.0169
27 | ACGATACA | -0.0148
28 | AATCTGTC | 0.088
29 | GTGAACAA | 0.204
30 | TATCTCCA | 0.131
31 | CTATACAC | -0.0773
32 | CCTGCCAA | -0.0911
33 | CTACTTGC | 0.141
34 | AGAGGACG | -0.0944
35 | GGGTGGGA | 0.0375
36 | CTGGATCC | 0.0805
37 | AGAAGGCG | 0.00579
38 | GAACTCTC | 0.0328
39 | AATACGGT | -0.079
40 | GATCCTTA | -0.08
41 | ACACGCAT | -0.0457
42 | CACCAAAC | 0.121
43 | ATGCGCTG | -0.0147
44 | ATTACTTG | 0.212
45 | GAGGAACA | 0.109
46 | CCCCCCAA | -0.399
47 | CCCGTGGA | 0.0285
48 | GCGCCTAC | 0.0178
49 | CTGTGACC | -0.0102
50 | CCGCCGTA | -0.119

Two records drawn at random from those above, as already listed:
Row | Sequence | PBM E-score
30 | TATCTCCA | 0.131
10 | CCTATCAA | 0.071

Next results

Row | Sequence | PBM E-score
51 | AACCAGGA | 0.00294
52 | CCTAGACC | -0.0346
53 | CTACCATA | 0.1
54 | GTGACCAC | -0.083
55 | TAGCAAAA | -0.114
56 | CGTGTAAA | -0.101
57 | AAAAGCTC | -0.0693
58 | CGCCACGC | -0.113
59 | CCTTGGTC | -0.0147
60 | CTATAGAG | -0.162
61 | AACTCTAT | 0.0268
62 | AAATTCGT | 0.235
63 | CTAGTCTA | -0.122
64 | TCCCTGAA | 0.25
65 | AATCTTTA | -0.0709
66 | ACTACTAA | -0.00741
67 | CCCGGTAA | -0.174
68 | ACCAGTTG | 0.0529
69 | CTACCCCA | 0.117
70 | ACCGCTCT | -0.0258
71 | AGCAGCGG | -0.0933
72 | CTGATCTA | 0.00323
73 | GTGCTGTA | -0.0149
74 | CGCTTGTC | 0.0621
75 | GAGACCGC | -0.171

Look-ups from above.
Entry for AACTCTAT under PBM E-score: 0.0268
Entry for AATCTTTA under PBM E-score: -0.0709
Entry for AACCAGGA under PBM E-score: 0.00294
Entry for AAATTCGT under PBM E-score: 0.235
Entry for CTACCCCA under PBM E-score: 0.117
Entry for GTGACCAC under PBM E-score: -0.083

Additional results

Row | Sequence | PBM E-score
76 | CATGAATC | 0.115
77 | CCAGCATC | -0.0646
78 | AATCGTAA | 0.081
79 | TACCCGGA | -0.04
80 | CCGAGTCA | -0.161
81 | GATAAAAC | 0.103
82 | AGTCAGCC | -0.152
83 | CCAATGGC | 0.0147
84 | CACCAAAA | 0.103
85 | AGGAGTGG | -0.245
86 | CACTAGGC | -0.0913
87 | ACCAGGGC | -0.0495
88 | ATCGGTAG | -0.11
89 | TAAGGGCA | 0.122
90 | CAATCATA | 0.177
91 | TCTGGTCA | -0.0626
92 | ATTCAAGC | 0.149
93 | ACTACGGA | -0.108
94 | AACACTGC | 0.154
95 | ATAAAGAA | 0.137
96 | ACTATTAG | 0.0208
97 | CATGTAAA | -0.163
98 | ACTCCGAA | -0.141
99 | AAAAGGTA | -0.0612
100 | GGAAGACA | -0.154

Row | Sequence | PBM E-score
101 | AATACCAT | 0.115
102 | TAGTCATA | -0.0609
103 | CAAATGAA | -0.0303
104 | TCCCCCCA | -0.398
105 | CCCGCAGA | 0.199
106 | ATGCGAGG | 0.137
107 | GCGGTTTA | 0.0652
108 | ATGCGATA | 0.0273
109 | AATCCTAG | 0.0124
110 | GCCTTGAA | -0.263
111 | TCTACACA | -0.0612
112 | AAAACCCC | 0.0161
113 | ATAGTTTG | 0.124
114 | AAGTTCCA | -0.106
115 | CAAGGGCC | 0.0335
116 | AGCCACGC | -0.185
117 | AAATTGCC | 0.0773
118 | TAAAGTTA | 0.147
119 | GAGGCTCC | -0.161
120 | CCGCGACC | -0.0745
121 | CCCGGTCG | -0.108
122 | ATGGCTCC | -0.0998
123 | AAACGTTC | 0.073
124 | GGACGACC | -0.00798
125 | CAGCAACG | 0.251

Row | Sequence | PBM E-score
126 | AGCTGAGA | -0.00603
127 | AGCTAGAA | -0.0709
128 | TCGCGGCA | -0.0381
129 | CACGACTG | -0.164
130 | CCTACGGC | -0.0487
131 | ATGCGATC | -0.00432
132 | AAACATAC | -0.0466
133 | AGTCCTAC | -0.113
134 | GATCATAA | 0.186
135 | GGAGGTCA | -0.1
136 | AGGACCAT | -0.067
137 | CATTAATC | 0.00049
138 | CGAGCTAC | 0.124
139 | AGGTTGCG | -0.0343
140 | TACGGTCA | -0.0837
141 | ACCGTTGC | 0.103
142 | AGTATGGG | 0.0265
143 | AAATAGGC | 0.0434
144 | ATGTCAAG | -0.0778
145 | CTAATAGC | 0.0195
146 | CCCAAATA | 0.0934
147 | GAAGACCC | 0.164
148 | TAAATGGA | -0.0213
149 | GTATAAAC | 0.156
150 | AAGTGCGC | 0.0541

Row | Sequence | PBM E-score
151 | GAGGCGCA | -0.0533
152 | GGAGCCTA | -0.0975
153 | CATAAGAA | 0.254
154 | CCACGCAG | 0.0276
155 | GCGAACCA | 0.0408
156 | ATGAAAGG | 0.0927
157 | AAAGATGC | -0.0405
158 | ATACCGAT | -0.165
159 | TAAGAAGA | 0.034
160 | TACCTTGA | 0.0991
161 | AATTATAA | 0.0953
162 | CGACTCCC | -0.182
163 | ACCATACT | 0.0482
164 | GGACACCC | -0.0523
165 | ACGAAAGT | 0.0299
166 | AAATGAGT | 0.0784
167 | GCAAGCGC | 0.0122
168 | AACCAATC | 0.125
169 | TGGACCCA | 0.0535
170 | AAGCGAGC | 0.152
171 | CATGACAG | 0.0637
172 | ATACATAG | 0.21
173 | CTACGCGA | 0.00636
174 | ATAAAACC | 0.143
175 | AACTTCAA | 0.0208

Row | Sequence | PBM E-score
176 | GTGAAATA | 0.0732
177 | ATAAGAGA | 0.0359
178 | CAGCTTAA | 0.019
179 | GAACCTGA | 0.0838
180 | ACACGACT | -0.00048
181 | ACCTTCGA | 0.0275
182 | GGACAACA | 0.174
183 | CATCGCAA | -0.13
184 | AGATACAT | 0.192
185 | TCACGGGA | 0.118
186 | TGCGCCCA | -0.0934
187 | TGACAAAA | 0.13
188 | ACCCCTCA | 0.0629
189 | GGAAAGTA | 0.212
190 | AACTGTGA | 0.192
191 | CCCGTCAG | -0.139
192 | GCTGTAAC | 0.0848
193 | AATCACCC | 0.155
194 | AGAGGGGC | -0.1
195 | AAAGATAC | 0.232
196 | ACCGCCTC | -0.17
197 | CTATTCAG | 0.0349
198 | ACAGATCT | 0.0451
199 | AAGGTCGC | -0.0587
200 | ACGGGACA | 0.0203

Row | Sequence | PBM E-score
201 | CAGATTTA | 0.131
202 | AAGGCAAC | 0.0667
203 | GCCCAAGA | -0.102
204 | AAGATCCT | 0.123
205 | AATTGAGG | 0.0708
206 | ATATATCA | 0.196
207 | ACCATGAA | 0.199
208 | ACCAAACT | 0.102
209 | GTGGTCCA | 0.0422
210 | GTGCATAA | -0.0219
211 | ATGCCAGA | 0.0482
212 | CGGGCGCC | 0.0792
213 | GCTTCCAC | -0.206
214 | AGTTGGCC | -0.16
215 | CATTCAAC | 0.0133
216 | ATTAGATG | 0.195
217 | TTAAAGAA | 0.144
218 | CATCCGGC | -0.0322
219 | TAAGGGAA | 0.0768
